Reference: patent US9220725B2, “Cationic latex as a carrier for bioactive ingredients and methods for making and using the same” (priority 2006, dated 2015)
At least one read-out could not be matched to a standard name with certainty. At least one compound was matched to its structure with a doubt left.

Experiment: Analytical determination of additive levels recovered from latex
Type: physicochemical
Conditions: in words

## Oc1cc(Cl)ccc1Oc1ccc(Cl)cc1Cl [Triclosan, Chlorodiphenyl ether, reference compound]
  incorporation into / recovery from latex: Significant amounts

## Cc1ccc(S(=O)(=O)C(I)I)cc1 [Amical AF, Diiodomethyltoluyl sulfone]
  incorporation into / recovery from latex: poorly incorporated
